# The source gives many values for each of these; only a part stands here.
# Tested on: HepG2 cells
# Assay: 44 k whole human genome oligo microarray gene expression, cells treated with chrysene at IC20 for 48 hours (Cy5) vs untreated control (Cy3)
# Format: cell-based
# Protocol: HepG2 cells were distributed on a 100 mm dish at the concentration of 6×10^6 cell/ml, to which chrysene was treated for 48 hours at the concentration that was determined in Example <1-2>. Total RNA was extracted from the cells using trizol reagent (Invitrogen life technologies, USA) according to the manufacturer's instruction and the extracted RNA was purified by using RNeasy mini kit (Qiagen, USA). The genomic DNA was eliminated during the purification of RNA using RNase-free DNase set (Qiagen, USA). The total RNA was quantified by spectrophotometer and purity was measured by Agilent 2100 Bioanalyzer (Agilent Technologies, USA) and agarose gel-electrophoration.
# For oligo-microarray analysis, cDNA was synthesized using the total RNA extracted from the experimental group treated with chrysene obtained in Example <2-1>. 30 μg of the total RNA and 2 μg (1 μg/μl) of oligo (dT) primer were mixed, followed by reaction for 10 minutes at 65° C. Then, the reaction mixture was put in ice, followed by annealing. Reagents were mixed as shown in Table 1 for reverse transcription of the RNA.
# The total RNA extracted from the control HepG2 cell line was labeled with Cy3-dUTP (green), while the RNA extracted from the experimental HepG2 cell line treated with chrysene was labeled with Cy5-dUTP (red). At this time, the two samples were mixed and purified by Microcon YM-30 column (Millipore, USA).
# Hybridization and washing were performed according to the instruction of GeneoCheck Co., Ltd. Hybridization was performed in a 62° C. oven for 12 hours. At this time, 44 k whole human genome oligo microarray (Agilent, USA) was used as a DNA microarray chip. After washing (with 2×SSC/0.1% SDS for 2 minutes, with 1×SSC for 3 minutes, with 0.2×SSC for 2 minutes), the slide was centrifuged at 800 rpm for 3 minutes and dried.
# Scanning of the hybridized images on the slide was performed by using Genepix 4000B (Axon Instruments, USA). Fluorescence images of the chip washed to eliminate non-binding genes were obtained by laser fluorescence scanner. At this time, green fluorescent images indicated the activity of the gene expressed in the control, whereas red fluorescent images indicated the activity of the gene expressed specifically in the experimental group. […] The scanned images were analyzed by GenePix 4.1 software (Axon Instruments, USA) to calculate the gene expression rate. Based on the obtained data, marker genes for chrysene were selected (see FIG. 2).
structure (smiles),measurement,setting,value
c1ccc2c(c1)ccc1c3ccccc3ccc21 [chrysene],Ratio of intermediate value,"04-Sep, Septin 4 (NM_004574)",4.421
same,Ratio of intermediate value,6PGL (BC017706),2.621
same,Ratio of intermediate value,ABCB6 (BC043423),3.039
same,Ratio of intermediate value,ACBD3 (AB043587),2.387
same,Ratio of intermediate value,ADAM19 (Y13786),3.419
same,Ratio of intermediate value,ADH1B (AF153821),2.421
same,Ratio of intermediate value,AKR1B10 (AF524864),5.17
same,Ratio of intermediate value,AKR1C3 (BQ939577),2.683
same,Ratio of intermediate value,AKR1C4 (BC020744),3.074
same,Ratio of intermediate value,ANXA4 (BX641114),2.143
same,Ratio of intermediate value,APAF1 (NM_181861),2.324
same,Ratio of intermediate value,APLP1 (NM_001024807),14.6
same,Ratio of intermediate value,APOBEC3B (AK024854),3.958
same,Ratio of intermediate value,APOBEC3F (NM_145298),4.283
same,Ratio of intermediate value,APOL1 (NM_145343),2.065
same,Ratio of intermediate value,AQP3 (AK095363),8.623
same,Ratio of intermediate value,ATXN3 (BC095402),2.202
same,Ratio of intermediate value,BIRC3 (NM_001165),6.105
same,Ratio of intermediate value,BMP1 (AB209590),2.018
same,Ratio of intermediate value,BPGM (NM_199186),2.002
same,Ratio of intermediate value,BTG2 (NM_006763),8.033
same,Ratio of intermediate value,C9orf150 (NM_203403),2.2
same,Ratio of intermediate value,CABYR (NM_012189),15.75
same,Ratio of intermediate value,CAPN2 (AK124751),4.877
same,Ratio of intermediate value,CARD6 (AF356193),2.315
same,Ratio of intermediate value,CASP10 (BC042844),2.071
same,Ratio of intermediate value,CCIN (AF333334),2.908
same,Ratio of intermediate value,CCNK (AB209373),2.274
same,Ratio of intermediate value,CD3E (NM_000733),2.069
same,Ratio of intermediate value,CD14 (CR614015),2.62
same,Ratio of intermediate value,CDC42 (NM_044472),2.087
same,Ratio of intermediate value,CDKN1A (NM_078467),21.05
same,Ratio of intermediate value,CEL (X54457),11.01
same,Ratio of intermediate value,CGB5 (BX386171),2.117
same,Ratio of intermediate value,CHRM5 (NM_012125),2.113
same,Ratio of intermediate value,CNGB1 (NM_001297),5.653
same,Ratio of intermediate value,COL7A1 (L02870),4.294
same,Ratio of intermediate value,COL9A2 (BC041479),3.574
same,Ratio of intermediate value,CPA1 (AK124421),3.111
same,Ratio of intermediate value,CRA (BC094756),2.621
same,Ratio of intermediate value,CSPG4 (X96753),3.343
same,Ratio of intermediate value,CSRP2 (AB209321),2.079
same,Ratio of intermediate value,CTHRC1 (BC021025),3.023
same,Ratio of intermediate value,CTSB (NM_147780),6.625
same,Ratio of intermediate value,CYGB (CR615530),5.51
same,Ratio of intermediate value,CYP1A1 (NM_000499),88.34
same,Ratio of intermediate value,CYP2S1 (NM_030622),2.769
same,Ratio of intermediate value,CYP2U1 (BC012027),2.369
same,Ratio of intermediate value,CYP4F3 (AB002454),2.282
same,Ratio of intermediate value,CYP4F11 (BC092420),3.048
same,Ratio of intermediate value,CYP21A2 (CD013987),3.5
same,Ratio of intermediate value,CYP26A1 (AK027560),4.292
same,Ratio of intermediate value,CYR61 (Y11307),8.871
same,Ratio of intermediate value,DAO (BC029057),3.658
same,Ratio of intermediate value,DAZAP1 (AK124583),2.093
same,Ratio of intermediate value,DCAMKL1 (AF052152),2.947
same,Ratio of intermediate value,DCTN6 (NM_006571),2.033
same,Ratio of intermediate value,DDB2 (BC050455),5.131
same,Ratio of intermediate value,DGKA (NM_201444),6.832
same,Ratio of intermediate value,DHRS3 (NM_004753),2.953
same,Ratio of intermediate value,DHRS6 (NM_020139),2.017
same,Ratio of intermediate value,EFNB1 (NM_004429),2.29
same,Ratio of intermediate value,EGR2 (BC035625),5.012
same,Ratio of intermediate value,EI24 (NM_004879),3.84
same,Ratio of intermediate value,EMP3 (BM556279),2.029
same,Ratio of intermediate value,ENO2 (AK124656),2.273
same,Ratio of intermediate value,ERCC1 (NM_001983),1.811
same,Ratio of intermediate value,FADS3 (NM_021727),4.914
same,Ratio of intermediate value,FAS (AB209361),9.283
same,Ratio of intermediate value,FDXR (BC034763),9.627
same,Ratio of intermediate value,FGFR1OP (NM_007045),2.094
same,Ratio of intermediate value,FLJ42654 (AB075871),2.279
same,Ratio of intermediate value,FRK (NM_002031),2.008
same,Ratio of intermediate value,FXYD2 (BX641053),14.84
same,Ratio of intermediate value,GABRE (NM_021990),3.111
same,Ratio of intermediate value,GADD45A (CR612719),2.785
same,Ratio of intermediate value,GADD45B (AK129595),2.432
same,Ratio of intermediate value,GALGT (NM_001478),2.372
same,Ratio of intermediate value,GDF15 (NM_004864),6.654
same,Ratio of intermediate value,GLA (NM_000169),2.641
same,Ratio of intermediate value,GM2A (NM_000405),2.078
same,Ratio of intermediate value,GPD1L (D42047),2.17
same,Ratio of intermediate value,HDAC2 (F02250),2.559
same,Ratio of intermediate value,HIP1 (AY358103),2.101
same,Ratio of intermediate value,HIST1H1C (NM_005319),4.257
same,Ratio of intermediate value,HIST1H1D (NM_005320),3.301
same,Ratio of intermediate value,HIST1H1E (BU603483),4.639
same,Ratio of intermediate value,HIST1H2AC (CR608156),1.895
same,Ratio of intermediate value,HIST1H2BD (BC042589),2.361
same,Ratio of intermediate value,HIST1H2BH (BX436525),1.564
same,Ratio of intermediate value,HIST1H2BI (BC101655),1.863
same,Ratio of intermediate value,HIST1H2BO (BX647290),1.512
same,Ratio of intermediate value,HIST2H2AA (NM_003516),3.052
same,Ratio of intermediate value,HIST2H2BE (CB529694),2.358
same,Ratio of intermediate value,HIVEP3 (CR601823),3.291
same,Ratio of intermediate value,HSD3B2 (CR627415),3.576
same,Ratio of intermediate value,HSPB1 (BM557864),5.989
same,Ratio of intermediate value,IER3 (NM_003897),3.324
same,Ratio of intermediate value,IFI16 (AF208043),2.147
same,Ratio of intermediate value,IGFBP1 (NM_000596),4.426
same,Ratio of intermediate value,IGFBP2 (AB209509),2.281
same,Ratio of intermediate value,IGFBP3 (NM_001013398),11.51
same,Ratio of intermediate value,IGFBP4 (NM_001552),2.17
same,Ratio of intermediate value,IGFBP7 (NM_001553),3.467
same,Ratio of intermediate value,IHPK3 (BC089389),17.87
same,Ratio of intermediate value,ISYNA1 (AK093461),8.506
same,Ratio of intermediate value,JAG1 (AF003837),2.053
same,Ratio of intermediate value,KIAA1434 (AL833069),2.042
same,Ratio of intermediate value,KIAA1466 (AB040899),2.151
same,Ratio of intermediate value,KIAA1949 (AK126182),2.807
same,Ratio of intermediate value,KIF3B (NM_004798),3.215

# — US8080377B2, “Method for confirming the exposure on chrysene” (Korea Institute of Science and Technology, priority 2008, dated 2011)
